Data as given in PubChem BioAssay AID504793 (Drosophila RNAi Screening Center, 2011).
The deposit covers about 23,000 reagents; shown is a random part of those that have a named target and a result. Of all reagents, 62 (0.27%) were called active. 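Calls come from follow-up tests whose scores are not deposited, so confirmed genes may have low counts here; counts are not normalised per plate.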 Raw values vary from plate to plate and are shown uncorrected. Reagent sequences are not shown.

Test: 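Genes required for cells to halt at G2/M after double-strand DNA breaks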 (primary screen)
Cells: Drosophila S2R+ cells
Reagents: long dsRNA against Drosophila genes, about 0.25 µg dsRNA per well
Timing: 4 days of dsRNA, then 4 hours of drug before read-out
Conditions: doxorubicin 0.5 µM for 4 hours to cause double-strand breaks, in cells also given a low, harmless dose of dsRNA against nbs to sensitise the assay
Measurement: 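Mitotic index as the number of phospho-histone H3-positive cells in each well following doxorubicin, given as raw counts without normalisation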
Scale: mitotic cells: higher = more cells in mitosis, weaker G2 arrest
Active means: 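a call needs confirmation in secondary tests, with other dsRNAs and a check of mitotic timing without damage, not just a high primary count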
Meaning of the calls: active = confirmed in follow-up tests; inactive = not confirmed

CG6179 [DRSC19973] — mitotic cells, replicate 1: 16; Call: inactive
PH4alphaNE2 (prolyl-4-hydroxylase-alpha NE2) [DRSC16544] — mitotic cells, replicate 1: 7; Call: inactive
PH4alphaNE2 (prolyl-4-hydroxylase-alpha NE2) [DRSC24689] — mitotic cells, replicate 1: 8; Call: inactive
CG2120 [DRSC18207] — mitotic cells, replicate 1: 8; Call: inactive
CG2120 [DRSC26944] — mitotic cells, replicate 1: 7; Call: inactive

The list goes on; the last 2 above are carried over.
CG2120 [DRSC18207] — mitotic cells, replicate 1: 8; Call: inactive
CG2120 [DRSC26944] — mitotic cells, replicate 1: 7; Call: inactive
PolH (DNA polymerase eta) [DRSC11800] — mitotic cells, replicate 1: 3; Call: inactive
raw [DRSC03599] — mitotic cells, replicate 1: 1; Call: inactive
raw [DRSC03600] — mitotic cells, replicate 1: 1; Call: inactive
CG1737 [DRSC19771] — mitotic cells, replicate 1: 10; Call: inactive
CG1737 [DRSC25132] — mitotic cells, replicate 1: 5; Call: inactive
SPE (Spatzle-Processing Enzyme) [DRSC15135] — mitotic cells, replicate 1: 11; Call: inactive
SPE (Spatzle-Processing Enzyme) [DRSC25455] — mitotic cells, replicate 1: 7; Call: inactive
Ist1 [DRSC09697] — mitotic cells, replicate 1: 4; Call: inactive
Ist1 [DRSC25231] — mitotic cells, replicate 1: 14; Call: inactive
